Experimental data: patent publication US20250051429A1
These are yes or no findings as the source states them, for the method shown. Some results given as binding are weak or reduced against the parent protein; the word gives no strength.

Sequences of proteins named here, by UniProt entry; tags and fusion partners are left off. Residues count along the entry.
UniProt P05067, residues 672-713: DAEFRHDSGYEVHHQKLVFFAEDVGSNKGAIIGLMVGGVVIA

Legend:
[1] = molecular target: human A-beta protein, fibrillar A-beta(1-40) coated for the ELISA (human); experiment: in vitro binding (ELISA)
[2] = molecular target: human A-beta protein, fibrillar A-beta(1-40) coated for the ELISA (human); experiment: A-beta binding (ELISA), qualitative grade
[3] = molecular target: A-beta plaques in brain sections (in vitro plaque decoration) (human) (UniProt P05067); experiment: in vitro plaque decoration of brain sections
[4] = molecular target: A-beta plaques in brain sections (in vitro plaque decoration) (human) (UniProt P05067); experiment: in vitro plaque decoration/background, qualitative grade
[5] = molecular target: A-beta plaques in brain sections (in vitro plaque decoration) (human) (UniProt P05067); experiment: specific plaque staining of brain sections, antibody concentration 0.1
[6] = molecular target: A-beta plaques in brain sections (in vitro plaque decoration) (human) (UniProt P05067); experiment: specific plaque staining of brain sections, antibody concentration 1.0

Measured: binding

B1: mAb 663 (antibody, V domains shown)
VH: QVELVESGGGLVQPGGSLRLSCAASGFTFSSYAMSWVRQAPGKGLEWVSAIQASGTRTYYADSVKGRFTISRDNSKNTLYLQMNSLRAEDTAVYYCARGKGSSGYVRYFDVWGQGTLVTVSS
VL: DIVLTQSPATLSLSPGERATLSCRASQSVSSSYLAWYQQKPGQAPRLLIYGASSRATGVPARFSGSGSGTDFTLTISSLEPEDFATYYCLQIYNMPITFGQGTKVEIK
modifications: no Fab glycosylation (CE-SDS 0 %)
binds: all assays above

B2: mAb 675 (antibody, V domains shown)
VH: QVELVESGGGLVQPGGSLRLSCAASGFTFSSYAMSWVRQAPGKGLEWVSAINATGTRTYYADSVKGRFTISRDNSKNTLYLQMNSLRAEDTAVYYCARGKGSSGYVRYFDVWGQGTLVTVSS
VL: DIVLTQSPATLSLSPGERATLSCRASQSVSSSYLAWYQQKPGQAPRLLIYGASSRATGVPARFSGSGSGTDFTLTISSLEPEDFATYYCLQIYNMPITFGQGTKVEIK
modifications: glycosylation site in heavy chain CDR2 (NAT); Fab glycosylation (CE-SDS) 100 %
binds: all assays above

B3: mAb 651 (antibody, V domains shown)
VH: QVELVESGGGLVQPGGSLRLSCAASGFTFSSYAMSWVRQAPGKGLEWVSAINATGTRTYYADSVKGRFTISRDNSKNTLYLQMNSLRAEDTAVYYCARGKGSSGYVRYFDVWGQGTLVTVSS
VL: DIVLTQSPATLSLSPGERATLSCRASQSVSSSYLAWYQQKPGQAPRLLIYGASSRATGVPARFSGSGSGTDFTLTISSLEPEDFATYYCLQIYNHPITFGQGTKVEIK
modifications: glycosylation site in heavy chain CDR2 (NAT); Fab glycosylation (CE-SDS) 100 %
binds: [2]

B4: mAb 638 (antibody, V domains shown)
VH: QVELVESGGGLVQPGGSLRLSCAASGFTFSSYAMSWVRQAPGKGLEWVSAIQASGTRTYYADSVKGRFTISRDNSKNTLYLQMNSLRAEDTAVYYCARGKGSSGYVRYFDVWGQGTLVTVSS
VL: DIVLTQSPATLSLSPGERATLSCRASQSVSSSYLAWYQQKPGQAPRLLIYGASSRATGVPARFSGSGSGTDFTLTISSLEPEDFATYYCLQIYNHPITFGQGTKVEIK
modifications: no Fab glycosylation (CE-SDS 0 %)
binds: all assays above

B5: gantenerumab (antibody, human IgG1, V domains shown)
VH: QVELVESGGGLVQPGGSLRLSCAASGFTFSSYAMSWVRQAPGKGLEWVSAINASGTRTYYADSVKGRFTISRDNSKNTLYLQMNSLRAEDTAVYYCARGKGNTHKPYGYVRYFDVWGQGTLVTVSS
VL: DIVLTQSPATLSLSPGERATLSCRASQSVSSSYLAWYQQKPGQAPRLLIYGASSRATGVPARFSGSGSGTDFTLTISSLEPEDFATYYCLQIYNMPITFGQGTKVEIK
modifications: glycosylation site in heavy chain CDR2 (NAS); Fab glycosylation (CE-SDS) 30-80 %
not listed: [1]
binds: all other assays above
